Test results taken from PubChem BioAssay AID2685 (National Center for Advancing Translational Sciences (NCATS), 2010).
The list shows a part of the results. These are further read-outs of the screen, such as a control signal, another cell line or another target. No call is given for them. The list favours compounds with an active or inconclusive main result. Potencies come from curve fits of mixed quality, noted in brackets.

Experiment: qHTS Assay for Lipid Storage Modulators in Drosophila S3 Cells;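 on cell number change: cells counted by Cell Tracker Red CMTPX staining in the red channel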
Conditions: BODIPY lipid droplet fluorescence, 18-24 h; for cell number change: measured here: cell count max response, cells fed with added oleic acid
Method in brief: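 Laser-scanning cytometry quantifies lipid droplet accumulation (500–530 nm total intensity; droplet/cell object ratio) in oleic acid-fed (400 uM added) Drosophila S3 cells treated with a concentration series. 20 uM Triacsin C defined 100% inhibition.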

[1] = measured here: cell number channel AC50, cells fed with added oleic acid
[2] = measured here: lipid fluorescence (Fed channel) AC50, cells fed with added oleic acid

| Structure (SMILES) | cell number change [%] | AC50 [1] | AC50 [2] |
| --- | --- | --- | --- |
| COc1ccc(-n2nc([N+](=O)[O-])c(=NCc3ccc4c(c3)OCO4)n2O)cc1 | 2.08 | 6.51 µM [rising, single point] | 4.11 µM [rising, single point] |
| CN(C)CCn1c(C(=O)Nc2ccccc2)cc2ccccc21 | -23.4 | – | 32.6 µM [falling, single point] |
| OC(CNCC(c1ccco1)N1CCCCC1)c1ccccc1 (stereo not given) | -17.8 | – | – |
| COc1ccc(CCC(C)Nc2ccc(F)c(F)c2)cc1 (stereo not given) | -37.2 | 14.6 µM [falling, single point] | 29.1 µM [falling, single point] |
| CCC(C)Sc1ccc([C@@H]2[C@@H]3C(=O)N(C)C(=O)[C@@H]3[C@]3(C(=O)OC)CCCCN23)cc1 (stereo not given in full) | 10.6 | – | 29.1 µM [rising, single point] |
| COc1cccc(N2CN(CCc3ccccc3)CNC2=S)c1 | -0.299 | – | 0.146 µM [falling, full curve] |
| Cc1[nH]nc2c1C1(CCC(c3ccccc3)CC1)C(C#N)=C(N)O2 (stereo not given) | -15.2 | – | 0.461 µM [rising, single point] |
| CCOC(=O)c1[nH]c(C)c(C(=O)O)c1C | 31.8 | 1.84 µM [rising, full curve, poor fit] | 3.66 µM [falling, full curve] |
| O=C(O)C1CC(c2ccc(F)cc2)=NO1 (stereo not given) | -38.3 | 25.9 µM [falling, single point] | 29.1 µM [falling, single point] |
| Cc1ccc(O)c(N=NC2=C(O)CC(C)(C)CC2=O)c1 | -31.3 | – | 23.1 µM [falling, partial curve] |
| Cc1ccc([N+](=O)[O-])cc1S(=O)(=O)Nc1ccc(N2CCOCC2)cc1 | 27.5 | – | 18.4 µM [rising, single point] |
| COc1cccc(CN2CCN(Cc3ccco3)CC2)c1 | – | 0.58 µM [falling, single point] | – |
| CCC1CCCCN1CC(O)Cn1c2ccccc2n2c(=O)cc(C)c(C#N)c12 (stereo not given) | 17.4 | – | 1.46 µM [rising, partial curve, poor fit] |
| Cc1cccc(C(C)C)c1NS(=O)(=O)c1cn(C)nc1C | -4.85 | – | 0.13 µM [rising, partial curve, poor fit] |
| CC(=O)Nc1ccc(NC(=O)COC(=O)c2n[nH]c3ccccc23)cc1 | -24.8 | – | – |
| Cc1noc(C)c1COc1ccccc1C(=O)NNC(=O)c1ccccc1 | -4.49 | – | – |
| COCCc1ncc(CN2CCCCC2C(=O)Nc2ccc(Oc3ccccc3)nc2)cn1 (stereo not given) | 6.74 | – | – |
| O=C(NC1CCCC1)C(c1ccncc1)N(CC1CCCO1)C(=O)Cn1nnc(-c2cccs2)n1 (stereo not given) | 42.7 | 25.9 µM [rising, single point] | – |
| COc1cccc2cc(C(=O)N3CCN(C/C=C/c4ccccc4)CC3)c(=O)oc12 | 3.24 | – | 0.82 µM [rising, full curve, poor fit] |

Single entries from the results shown:
Cc1[nH]nc2c1C1(CCC(c3ccccc3)CC1)C(C#N)=C(N)O2 (stereo not given) – cell number change [%]: -15.2
CN(C)CCn1c(C(=O)Nc2ccccc2)cc2ccccc21 – cell number change [%]: -23.4

Next results:

| Structure (SMILES) | cell number change [%] | AC50 [1] | AC50 [2] |
| --- | --- | --- | --- |
| Cn1c(NC(=O)CC2CCCCC2)cc(=O)n(C)c1=O | 15.6 | – | 0.146 µM [rising, full curve, poor fit] |
| Cc1nn(-c2ccccc2)c(=S)c2ccccc12 | 26.9 | – | – |
| COc1cc(C(=S)N2CCOCC2)ccc1OC(=O)c1ccc([N+](=O)[O-])cc1[N+](=O)[O-] | -5.74 | – | 0.116 µM [rising, full curve, poor fit] |
| O=C(O)CCC(=O)Nc1ccc(-c2csc(Nc3cccc4ccccc34)n2)cc1 | -14.5 | 0.651 µM [falling, full curve, poor fit] | 0.82 µM [falling, full curve, poor fit] |
| O=C(CSc1nnc(CNC(=O)c2c(F)cccc2Cl)o1)NC1CCCC1 | -19.8 | – | 29.1 µM [rising, single point] |
| O=C(CCCc1ccccc1)NCc1ccccc1 | -1.62 | – | – |
| Fc1ccc(/C=N/N2CCN(Cc3ccccc3)CC2)cc1 | 5.56 | – | 20.6 µM [falling, single point] |
| Cc1ccccc1C(=O)Nc1cccc(NC(=O)c2ccccc2[N+](=O)[O-])c1 | -1.69 | – | 6.51 µM [falling, single point] |
| CC1CN(S(=O)(=O)c2cccc(C(=O)NNC(=O)C(C)Oc3ccccc3F)c2)CC(C)O1 (stereo not given) | -18.9 | – | – |
| Cc1ccc(-n2c(=O)cc(N3CC(C)CC(C)C3)[nH]c2=O)cc1 (stereo not given) | -48 | 18.4 µM [falling, partial curve, poor fit] | 14.6 µM [falling, partial curve, poor fit] |
| CC(=O)c1c(N)c(C#N)c(C)n1-c1ccc(Br)cc1 | 100 | 3.66 µM [rising, full curve] | 2.59 µM [rising, full curve] |
| CN(C)CCNC(=S)Nc1ccc(Cl)cc1Cl | -12.5 | – | 32.6 µM [falling, partial curve] |
| COc1ccc(S(=O)(=O)N2CCCCCC2)cc1NC(=O)CN(C)Cc1ccc2c(c1)OCO2 | -11.2 | 6.51 µM [rising, single point] | – |
| C=CCn1c(CCNC(=O)c2ccccc2F)nnc1SCC(=O)Nc1nc2ccccc2s1 | -23.5 | – | 18.4 µM [falling, single point] |
| C/C(=N/OC(=O)c1ccc(C)cc1)C(=O)c1ccc(Br)cc1 | 36.3 | 13 µM [rising, partial curve, poor fit] | – |
| COCCN(C(=O)COC(=O)CC1CCCCC1)c1c(N)n(Cc2ccccc2)c(=O)[nH]c1=O | -13.8 | – | – |
| O=C(CCSCCc1ccccn1)Nc1cc(F)ccc1F | 39.9 | 7.31 µM [rising, partial curve] | 0.58 µM [rising, single point] |
| O=C(NNC(=O)c1cccc(Br)c1)C(=O)N1CCCCC1 | -17.8 | – | 3.26 µM [falling, full curve, poor fit] |
| COC(=O)c1[nH]c2cc(OC)c(OC)cc2c1NC(=O)CN1C[C@H]2C[C@@H](C1)c1cccc(=O)n1C2 | 10.1 | – | 0.116 µM [rising, full curve, poor fit] |
